# According to PubChem BioAssay AID662 (National Center for Advancing Translational Sciences (NCATS), 2007):
# “And” between values parts separate entries of the source, which are not always exact repeats. Equal values may be shown once. The list shows a part of the results. Shown are side measurements of this screen, not its main read-out; they come without a call. Most of these compounds were active or inconclusive in the main read-out, so they are no random draw. The note in brackets gives the kind of curve behind each potency; many fits are weak.
# Test: Cell signaling CRE-BLA (Fsk stim)
# Settings: CHO CRE-bla reporter (cAMP response element driving beta-lactamase), forskolin EC10, beta-lactamase ratio; measured here: 460 nm blue channel
# Summary of the method: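 Forskolin analogue NKH 477 at EC10 stimulated CRE-driven beta-lactamase in CHO cells alongside compound dilution series. Beta-lactamase was measured with CCF4, excitation 405 nm, emission ratio 460/530 nm.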
row,SMILES,AC50
1,CC(=O)Nc1sc2c(c1C(c1cccs1)N1CCOCC1)CCCC2 (stereo not drawn),"0.251 µM [falling, full curve]"
2,CCOc1ccc2c(c1)C(C)=CC(C)(C)N2,"15.8 µM [rising, partial curve]"
3,COc1ccc(OC)c(-c2nnc(-c3ccc(C)o3)o2)c1,"25.1 µM [rising, single point]"
4,CCn1nc(NC(=O)c2ccncc2)c2cc3ccc(C)cc3nc21,"1 µM [rising, partial curve]"
5,Cc1ccc(C)c(N2CCN(C(=O)C3CCN(c4nc(C)cc(C)n4)CC3)CC2)c1,"10 µM [falling, single point]"
6,O=C(CCS(=O)(=O)c1ccc(Br)cc1)N1CCN(Cc2ccccc2)CC1,"0.631 µM [falling, full curve]"
7,CSc1nsc(SCc2ccc(F)cc2)n1,"3.16 µM [rising, single point]"
8,COC(=O)c1cc(CSc2nc3ccc(C)cc3[nH]2)oc1C,"0.2 µM [rising, full curve]"
9,COc1ccc(CN(C(=O)c2ccco2)c2ccc(Br)cc2)cc1OC,"7.94 µM [rising, partial curve]"
10,CCCCN1C(=O)C(O)(CC(=O)c2c(C)n[nH]c2C)c2cc(Br)ccc21 (stereo not drawn),"31.6 µM [falling, single point]"
11,Cn1c(=O)c2[nH]c(C3CCCC3)nc2n(C)c1=O,"31.6 µM [falling, single point]"
12,CCOc1ccc(N2CC(=O)SC2=S)cc1,"31.6 µM [falling, single point]"
13,CCS(=O)(=O)c1ccc2oc(SCC(=O)c3ccco3)nc2c1,"12.6 µM [rising, partial curve]"
14,c1ccc(-n2nnnc2SCc2cn3ccccc3n2)cc1,"10 µM [rising, single point]"
15,CCOC(=O)CSc1nc2cc(C)ccc2cc1C#N,"0.794 µM [rising, full curve, poor fit]"
16,N=c1n(CCN2CCOCC2)c2ccccc2n1CC(=O)c1ccc(Cl)c(Cl)c1,"25.1 µM [falling, single point]"
17,Cn1nc(C(C)(C)C)cc1C(=O)Nc1nc2c(s1)C(=O)CC(C)(C)C2,"12.6 µM [rising, single point]"
18,CC1CN(c2oc(-c3ccco3)nc2C#N)CC(C)O1 (stereo not drawn),"7.94 µM [rising, partial curve, poor fit]"
19,O=C(c1cc(-c2ccc(F)cc2)on1)N1CCCC1,"25.1 µM [rising, single point]"
20,CC1CCCN(C(=O)CN2C(=O)c3ccccc3C2=O)C1 (stereo not drawn),"0.2 µM [falling, full curve]"
21,COc1ccc2c(CC(=O)NCc3ccc4c(c3)OCO4)coc2c1,"0.251 µM [falling, full curve, poor fit]"
22,Cn1c(=O)c(-c2cccs2)nc2cnc(Oc3ccccc3)nc21,"10 µM [rising, partial curve]"

# Gathered by group: the compounds so far containing fluorine (2)
row,SMILES,AC50
7,CSc1nsc(SCc2ccc(F)cc2)n1,"3.16 µM [rising, single point]"
19,O=C(c1cc(-c2ccc(F)cc2)on1)N1CCCC1,"25.1 µM [rising, single point]"

# (cont.)

row,SMILES,AC50
1,CN(C)c1ncc2nc(CCc3ccccc3)c(=O)n(C3CC3)c2n1,"10 µM [rising, partial curve]"
2,COC(=O)c1ccccc1NC(=O)CSc1nnnn1-c1ccc(C)cc1C,"12.6 µM [rising, single point]"
3,Cc1cccc(CNc2nc(-c3c(C)noc3C)nc3ccccc23)c1,"3.98 µM [rising, single point]"
4,CCn1c(SCC(=O)N2CCCc3ccccc32)nc2cccnc21,"10 µM [rising, partial curve]"
5,CCn1c(CCNC(=O)c2ccc(Cl)cc2)nnc1SCC(=O)NC1CCCC1,"0.00398 µM [falling, full curve, poor fit]"
6,CCOc1ccc2[nH]c(C)c(CN3CCN(CC)CC3)c(=O)c2c1,"0.1 µM [falling, full curve]"
7,COc1ccc(-n2c(=O)c3c4c(sc3n3c(C)nnc23)COC(C(C)C)C4)cc1 (stereo not drawn),"15.8 µM [rising, partial curve, poor fit]"
8,CCOC(=O)N1CCN(S(=O)(=O)c2ccc(C(=O)Nc3ccc(F)cc3F)cc2)CC1,"12.6 µM [rising, single point]"
9,Cn1c(SCc2nc3ccccc3[nH]2)nnc1-c1ccccn1,"25.1 µM [rising, single point]"
10,CCOc1ccc(NS(=O)(=O)c2ccc3[nH]cc(C(=O)NCCOC)c(=O)c3c2)cc1,"15.8 µM [falling, partial curve, poor fit]"
11,COc1ccc(CN2C(=O)[C@@H]3C(c4ccc(F)cc4)=NO[C@@H]3C2=O)cc1,"12.6 µM [rising, single point]"
12,Cc1cccc(N2CCN(C(=O)Cn3ccc4ccccc4c3=O)CC2)c1C,"1 µM [falling, full curve]"
13,COc1ccccc1C(=O)NCCn1cc(SCC(=O)Nc2nnc(C)s2)c2ccccc21,"1 µM [rising, full curve]"
14,OC(COc1ccc2c(c1)OCO2)CN1CCc2ccccc2C1 (stereo not drawn),"5.01 µM [falling, partial curve]"
15,COc1ccc(NS(=O)(=O)c2ccc3c(c2)CCC(=O)N3)c(OC)c1,"0.501 µM [falling, partial curve]"
16,CC(C)Cn1c(N)c(C(=O)CSc2ccc3c(c2)OCCO3)c(=O)n(C)c1=O,"6.31 µM [falling, single point]"
17,CCOC(=O)c1c(NC(=O)c2cccs2)sc2c1CCC2,"3.16 µM [rising, full curve]"
18,O=c1c(O)c(-c2ccc(O)c(O)c2)oc2cc(O)ccc12,"25.1 µM [rising, partial curve]"
19,CCN(CC)CCC[C@H](C)Nc1c2ccc(Cl)cc2nc2ccc(OC)cc12,"25.1 µM [rising, partial curve] and 7.94 µM [rising, partial curve]"
20,COc1ccc(-c2nc(C(N)=O)c3[nH]c(=O)n(-c4cccc(Cl)c4)c3n2)cc1OC,"15.8 µM [rising, partial curve]"
21,CCOc1cc(-c2cc(-c3ccc(N)cc3)nc(N)c2C#N)ccc1O,"3.16 µM [rising, full curve]"
